According to PMC4393111:
Results are given in words; binding and its absence hold for the method and conditions named. Binding seen in cells or lysates may run through a third protein. Some results given as binding are weak or reduced against the parent protein; the word gives no strength. For some of these results: Tags and fused reporters may be left off the sequences shown. One block for each molecule: values may come before it.

Chains of the proteins cited; added tags and fusions are not shown. Lines headed by an entry give the natural chain unless they say otherwise; changes in a name come on top.
UniProt P61006: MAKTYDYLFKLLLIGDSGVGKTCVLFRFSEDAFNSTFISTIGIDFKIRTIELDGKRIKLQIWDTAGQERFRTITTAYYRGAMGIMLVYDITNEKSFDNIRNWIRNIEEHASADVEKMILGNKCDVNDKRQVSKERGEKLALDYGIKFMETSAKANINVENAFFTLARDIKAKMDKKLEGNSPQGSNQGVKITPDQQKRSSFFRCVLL
UniProt P49841: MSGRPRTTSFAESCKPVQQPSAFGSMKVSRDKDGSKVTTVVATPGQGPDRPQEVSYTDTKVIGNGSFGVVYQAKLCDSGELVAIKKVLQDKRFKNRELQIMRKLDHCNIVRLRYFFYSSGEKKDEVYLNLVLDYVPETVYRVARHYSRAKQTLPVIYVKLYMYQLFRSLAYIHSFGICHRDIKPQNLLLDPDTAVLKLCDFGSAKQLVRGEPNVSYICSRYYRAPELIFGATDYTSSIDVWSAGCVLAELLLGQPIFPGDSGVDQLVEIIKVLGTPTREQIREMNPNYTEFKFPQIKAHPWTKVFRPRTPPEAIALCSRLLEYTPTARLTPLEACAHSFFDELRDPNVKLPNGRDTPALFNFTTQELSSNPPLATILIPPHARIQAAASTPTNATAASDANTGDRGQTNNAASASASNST

Legend:
GST-GDI2 (human) = molecular target: T1, GST-GDI2 (human) (UniProt P50395); experiment: pull-down; GST or GST-GDI2 on GST affinity beads in PBS, 4°C 1 h, then cell lysate 1 h at 4°C, three washes with PBS; blot for endogenous Rab8; only the target purified
T1 sequence: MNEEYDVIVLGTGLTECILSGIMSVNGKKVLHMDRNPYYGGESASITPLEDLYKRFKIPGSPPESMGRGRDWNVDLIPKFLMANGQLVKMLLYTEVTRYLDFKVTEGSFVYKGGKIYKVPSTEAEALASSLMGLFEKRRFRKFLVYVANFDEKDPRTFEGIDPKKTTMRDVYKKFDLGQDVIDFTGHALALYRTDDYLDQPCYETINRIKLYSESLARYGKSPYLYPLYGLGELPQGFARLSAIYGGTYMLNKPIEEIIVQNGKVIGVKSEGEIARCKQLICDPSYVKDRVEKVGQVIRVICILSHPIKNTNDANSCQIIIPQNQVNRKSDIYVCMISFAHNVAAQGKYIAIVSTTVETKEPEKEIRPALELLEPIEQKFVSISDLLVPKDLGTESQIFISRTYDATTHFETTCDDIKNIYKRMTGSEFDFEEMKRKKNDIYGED

GFP-Rab8^T22N [1] = molecular target: GFP-Rab8^T22N (UniProt P61006); experiment: co-IP; both partners co-expressed with tags in HEK 293T cells (some in G0 phase; some treated with the GSK3 inhibitors BIO or CHIR99021, the CK1 inhibitor D4476 or the CK2 inhibitor CX4945); IP of the GFP-, CFP/YFP-tagged partner; IP buffer 0.1% NP-40, 50 mM HEPES pH 7.00, 125 mM NaCl, 4°C
GFP-Rab8^T22N [2] = molecular target: GFP-Rab8^T22N (UniProt P61006); experiment: co-IP; GFP-tagged protein expressed in HEK 293T cells, endogenous partner blotted in its immunoprecipitate; Fig 5B: G0 phase, with or without BIO or CHIR99021
[3] = molecular target: GFP-GSK3β (wild type) (human) (UniProt P49841); experiment: as above

binding (GST-GDI2 (human)): binds
Molecule: endogenous Rab8 (cell lysate of Fig 3B, cell line not stated) (from UniProt P61006 1-207)

binding (GFP-Rab8^T22N [1]): binds
B1: Myc-GDI2 (protein, UniProt P50395 1-445)
chain: MNEEYDVIVLGTGLTECILSGIMSVNGKKVLHMDRNPYYGGESASITPLEDLYKRFKIPGSPPESMGRGRDWNVDLIPKFLMANGQLVKMLLYTEVTRYLDFKVTEGSFVYKGGKIYKVPSTEAEALASSLMGLFEKRRFRKFLVYVANFDEKDPRTFEGIDPKKTTMRDVYKKFDLGQDVIDFTGHALALYRTDDYLDQPCYETINRIKLYSESLARYGKSPYLYPLYGLGELPQGFARLSAIYGGTYMLNKPIEEIIVQNGKVIGVKSEGEIARCKQLICDPSYVKDRVEKVGQVIRVICILSHPIKNTNDANSCQIIIPQNQVNRKSDIYVCMISFAHNVAAQGKYIAIVSTTVETKEPEKEIRPALELLEPIEQKFVSISDLLVPKDLGTESQIFISRTYDATTHFETTCDDIKNIYKRMTGSEFDFEEMKRKKNDIYGED

binding (GFP-Rab8^T22N [2]): binds
B2: endogenous GDI2 of HEK 293T cells (protein, UniProt P50395 1-445)
chain: MNEEYDVIVLGTGLTECILSGIMSVNGKKVLHMDRNPYYGGESASITPLEDLYKRFKIPGSPPESMGRGRDWNVDLIPKFLMANGQLVKMLLYTEVTRYLDFKVTEGSFVYKGGKIYKVPSTEAEALASSLMGLFEKRRFRKFLVYVANFDEKDPRTFEGIDPKKTTMRDVYKKFDLGQDVIDFTGHALALYRTDDYLDQPCYETINRIKLYSESLARYGKSPYLYPLYGLGELPQGFARLSAIYGGTYMLNKPIEEIIVQNGKVIGVKSEGEIARCKQLICDPSYVKDRVEKVGQVIRVICILSHPIKNTNDANSCQIIIPQNQVNRKSDIYVCMISFAHNVAAQGKYIAIVSTTVETKEPEKEIRPALELLEPIEQKFVSISDLLVPKDLGTESQIFISRTYDATTHFETTCDDIKNIYKRMTGSEFDFEEMKRKKNDIYGED

binding [3]: binds
B3: endogenous Dzip1 of HEK 293T cells (protein, UniProt Q86YF9 1-867)
chain: MQAEAADWFSSMPFQKHVYYPLASGPEGPDVAVAAAAAGAASMACAPPSAASGPLPFFQFRPRLESVDWRRLSAIDVDKVAGAVDVLTLQENIMNITFCKLEDEKCPHCQSGVDPVLLKLIRLAQFTIEYLLHSQEFLTSQLHTLEERLRLSHCDGEQSKKLLTKQAGEIKTLKEECKRRKKMISTQQLMIEAKANYYQCHFCDKAFMNQAFLQSHIQRRHTEENSHFEYQKNAQIEKLRSEIVVLKEELQLTRSELEAAHHASAVRFSKEYEMQKTKEEDFLKLFDRWKEEEKEKLVDEMEKVKEMFMKEFKELTSKNSALEYQLSEIQKSNMQIKSNIGTLKDAHEFKEDRSPYPQDFHNVMQLLDSQESKWTARVQAIHQEHKKEKGRLLSHIEKLRTSMIDDLNASNVFYKKRIEELGQRLQEQNELIITQRQQIKDFTCNPLNSISEPKGNPLAWQAFESQPAAPAVPMNAPALHTLETKSSLPMVHEQAFSSHILEPIEELSEEEKGRENEQKLNNNKMHLRKALKSNSSLTKGLRTMVEQNLMEKLETLGINADIRGISSDQLHRVLKSVESERHKQEREIPNFHQIREFLEHQVSCKIEEKALLSSDQCSVSQMDTLSTGEVPKMIQLPSKNRQLIRQKAVSTDRTSVPKIKKNVMEDPFPRKSSTITTPPFSSEEEQEDDDLIRAYASPGPLPVPPPQNKGSFGKNTVKSDADGTEGSEIEDTDDSPKPAGVAVKTPTEKVEKMFPHRKNVNKPVGGTNVPEMFIKKEELQELKCADVEDEDWDISSLEEEISLGKKSGKEQKEPPPAKNEPHFAHVLNAWGAFNPKGPKGEGLQENESSTLKSSLVTVTDWSDTSDV
